Measurements as given in US20050053916A1, “Diagnostic for long term response of HBV carrier to 3TC therapy” (priority 2002, published 2005).
At least one compound was matched to its structure with a doubt left.

Columns and labels:
HBV [1] = details: one population, HBeAg negative chronic hepatitis B; Hadziyannis and Vassilopoulos 2001; cited from earlier work
HBV [2] = experiment: Virological response (serum HBV DNA, HBV Monitor PCR) in chronic hepatitis B patients on long-term lamivudine therapy; format: in vivo, human; details: after 38 months of therapy (patient #26)
From the text: All patients had detectable HBV DNA by polymerase chain reaction (PCR) assay (HBV Monitor, Roche Diagnostics, Inc.) and by solution hybridization assay (Abbott Diagnostics, Inc.) at baseline and for at least 6 months before therapy. […] Patients were negative for hepatitis C, hepatitis D, or human immunodeficiency virus antibodies, and there were no evidences of autoimmune hepatitis.
All patients were followed with monthly clinical examination and routine laboratory tests.
Serum HBV DNA for the evaluation of response to treatment was analyzed by the HBV Monitor™ assay (Roche Diagnostic, Inc.) with a detection limit of 100 copies/ml, and a solution hybridization assay (Abbott Laboratories, Inc.) with a detection limit of 10 pg/ml.
Definitions—“Responder” patients were classified as attaining both a biochemical and virological response: normalization of ALT values and the absence of serum HBV DNA by Monitor™ PCR in two consecutive determinations during treatment. “Breakthrough” was defined as those patients in who HBV DNA reappeared by Monitor™ PCR assay after an initial antiviral response (serum HBV DNA negative by Monitor™ PCR), eventually associated with an increase of ALT levels greater than 1.5× the upper limit of normal (35 IU/L).

For Nc1ccn([C@@H]2CS[C@H](CO)O2)c(=O)n1 [lamivudine], which “patients with virological and biochemical breakthroughs after therapy” value (HBV [1]) is on record?
Its value is “almost half”.

What about the “virologic breakthrough observed, number of patients” value (HBV [2]) of the same compound?
Its value is “one”.
